In EP4524159A1, “ANTIBODY AND USE THEREOF” (Sichuan Huiyu Pharmaceutical Co., Ltd., priority 2022, dated 2023):

Assay: Drug : antibody ratio (DAR) of antibody-vc-MMAE conjugates by hydrophobic HPLC
Settings: share of DAR0 species
Method: The specific operation was to reduce each antibody and the control antibody CD27H10 (27H10 antibody in WO2018112334A1) with a 2-fold molar amount of […] (TECP) at 4 °C for 1 hour. A 7-fold molar amount of vcMMAE was then added for ligation at 4-25 °C for 1 h, and then the reaction mixture was dialyzed against 1 × PBS pH 8.0 and filtered for sterilization. Drug : antibody ratio (DAR) was detected by hydrophobic kurtosis with HLPC, and the molecular coupling results are shown in Table 14. Table 14 DAR values of antibody-drug conjugates
The humanized antibodies 1CP-125, 1CP-117 and 1CP-152 were subjected to linking to form ADC, and the linking process was the same as in example 18. Table 18 DAR values of antibody-drug conjugates

Row | Molecule | DARO (%)
1 | 6A7-MMAE (conjugate) VH: EVQLKESGAELVRPGASVKVSCKASGYSFTSYWMNWVKQRPGQGLEWIGMIHPSDSETKLNQKFRDRASLTVDKSSSTAYMQLSSPTSEDSAVYYCTINYESFYYAMDYWGQGTTVTVSS VL: DIVMTQSPASLAVSLGQRATISCRASKSVSTSGYSYMHWYQQKPGQPPKLLLYLASNLESGVPARFSGSGSGADFTLNIHPVEEEDAATYYCLHSRELPYTFGGGTKLEIK | 4.87%
2 | G10F6-MMAE (conjugate) VH: EVKLVESGPGILQPSQTLSLTCSFSGFSLSTSGMGVSWVRQPSGKGLEWLAHIYWDDDKRYNPSLKGRLTISKDTPRNQVFLEITSVDTTDTATYYCARVPGNWDEDAMDYWGQGTTVTVSS VL: DIQMTQSPLSLPVSLGDQASISCRSSQNIVHTNGNTYLEWYLQKVGQSPKLLIYKVSNRFSGVPDRFSGSGSGTDFTLKISRVEAEDLGVYYCFQGSHVPYTFGGGTKLEIK | 8.34%
3 | 8E5-MMAE (conjugate) VH: EVQLKESGPELKKPGETVKISCKASGYTLTDFSMHWLKQAPGKGLKWMGWINTETGAPTYADDFKGRFALSLDTSANTAYLQINNLKNEDTATYFCSRGRDYDPHFDYWGQGTTVTVSS VL: EIVLTQSPATLSVTPGDRVSLSCRASQSISDFLHWYQQRSHESPRLLIKYASQSISGIPSRFGGSGSGSDFTLNINTVEPEDVGMYYCQSAHSFPYTFGGGTKLEIK | 7.97%
4 | 10D2-MMAE (conjugate) VH: EVQLQQSGPELKKPGETVKISCKASGYTFTDYSMHWVKQAPGKGLKWMGWINTETGQPTYADDFKGRFAFSLETSASSAYLQINNLKNEDTATYFCTRTFYYDYVGDYWGQGTTVTVSS VL: DIVMTQSHKFMSTSVGDRVSITCKASQDVSTAVAWYRQKPGQSPKLLIYWASTRHTGVPDRLTGSGSGTDFALTINSVQAEDLALYYCQQHSSTPYTFGGGTKLEIK | 8.28%
5 | 3C11-MMAE (conjugate) VH: EVQLQQSGTVLARPGASVKMSCKASGYNFISYWLHWIKQRPGQGLEWIGGIYPGNTDTTYNQKFKGKAKVTAVTSATTAYMELSSLTNEDSAVYYCIRYDYDRGMDYWGQGTTVTVSS VL: DIQMTQSPSSFSVSLGDRVTITCRASEDIYYRLAWYQQKPGNAPRLLISGATALETGVPSRFSGSGSGKDYTLSITSLQTEDVATYYCQHYWNIPWTFGGGTKLEIK | 9.01%
6 | 3B 12H5-MMAE (conjugate) VH: EVQLQQSGTVLARPGASVKMSCKASGYSFTIYWVHWVKQRPGQGLEWIGAVYPGNDDTSYNQNFKGKAKLTAVTSATTAYMELSSLTIDDSAVYYCTRHTYDEVFDYWGQGTTVTVSS VL: DIVMTQSPSSLSVSLGDRVTITCKASEDIYYRLAWYQQKPGNAPRLLISGGTNLEAGIPSRFSGSGSGKDYTLSITSLQTEDVAIYYCQHYWNTPWTFGGGTKLEIK | 5.752%
